From patent US12161679B2, “Microbiome-based diagnosis, prediction and treatment of relapsing obesity” (Yeda Research and Development Co. Ltd., priority 2016, dated 2024)
For at least one compound, name, drawing or mass did not settle the structure.

Assay: Celastrol-enhanced weight loss of HFD-induced obese mice
Type: in vivo
Conditions: obese mice after HFD-induced weight gain

In the case of `CC1=C(O)C(=O)C=C2C1=CC=C1[C@@]2(C)CC[C@@]2(C)[C@@H]3C[C@](C)(C(=O)O)CC[C@]3(C)CC[C@]12C` [celastrol], the weight loss is reported as “weight loss was pharmacologically enhanced”.
